Experimental data from article PMC10543288.
No constants are given. Whether binding was seen depends on the method and setting. Binding seen in cells or lysates may run through a third protein. Some entries that bind do so weakly or less than the wild type.

By UniProt entry, the sequences of proteins in these tests, tags left out.
UniProt Q8VI67: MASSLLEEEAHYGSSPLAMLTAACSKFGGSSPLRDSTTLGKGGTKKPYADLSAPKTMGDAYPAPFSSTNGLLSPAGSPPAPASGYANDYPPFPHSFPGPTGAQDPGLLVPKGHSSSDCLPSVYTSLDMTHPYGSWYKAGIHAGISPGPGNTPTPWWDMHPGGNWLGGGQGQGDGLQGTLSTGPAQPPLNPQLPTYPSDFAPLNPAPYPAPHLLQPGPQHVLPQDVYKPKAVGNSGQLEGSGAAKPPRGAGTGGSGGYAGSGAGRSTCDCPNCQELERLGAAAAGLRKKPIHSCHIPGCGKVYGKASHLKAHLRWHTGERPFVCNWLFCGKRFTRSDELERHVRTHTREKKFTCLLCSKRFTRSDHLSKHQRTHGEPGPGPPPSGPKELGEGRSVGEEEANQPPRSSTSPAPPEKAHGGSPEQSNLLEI
UniProt Q64205: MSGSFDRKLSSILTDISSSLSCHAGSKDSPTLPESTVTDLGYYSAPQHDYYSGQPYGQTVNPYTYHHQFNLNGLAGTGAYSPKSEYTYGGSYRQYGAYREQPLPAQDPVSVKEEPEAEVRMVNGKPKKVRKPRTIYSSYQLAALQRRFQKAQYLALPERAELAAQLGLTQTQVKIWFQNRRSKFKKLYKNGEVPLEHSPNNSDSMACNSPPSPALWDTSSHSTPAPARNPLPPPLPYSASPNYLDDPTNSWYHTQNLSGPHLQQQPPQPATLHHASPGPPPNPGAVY

Molecular target: Flag-tagged full-length Sp7 (mouse) (UniProt Q8VI67)
Assay: co-IP; whole cell extracts of iMDP3 and HEK293T cells transfected for 48 h with Flag- and Myc-tagged constructs; precipitated with anti-Flag or anti-Myc antibody and protein G agarose beads, IgG as negative control; Western blotting

binding: binds
Substance: Myc-tagged full-length Dlx3 (from UniProt Q64205 1-287)
